Assay in all cases: glycan array binding signal (z-score within array); higher = stronger binding
Common to all, as to conditions: glycan notation: IUPAC condensed, linker removed

For test [1], the target named is Fuc(a1-2)Gal6S(b1-4)Glc. The method in brief: (§1)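 The binding signal is a Z-score computed within each array. Data were drawn from 3228 arrays in the Consortium for Functional Glycomics database, restricted to those with a known protein sequence. Scores were averaged over arrays of the same protein sequence at different concentrations or buffers, and over linkers, and negative values can be taken as non-binding.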

Test [2] concerns the target Fuc(a1-2)Gal6S(b1-4)Glc6S. Put shortly: as §1
Test [3] deals with Fuc(a1-2)Gal6S(b1-4)GlcNAc. Put shortly: as §1
Test [4] has as its target Fuc(a1-2)[Gal(a1-3)]Gal. Put shortly: as §1
Test [5] has as its target Fuc(a1-2)[Gal(a1-3)]Gal(b1-3)GlcNAc. The method in brief:
as §1

The target in test [6] is Fuc(a1-2)[Gal(a1-3)]Gal(b1-3)GlcNAc(b1-2)Man(a1-3)[Fuc(a1-2)[Gal(a1-3)]Gal(b1-3)GlcNAc(b1-2)Man(a1-6)]Man(b1-4)GlcNAc(b1-4)GlcNAc. The method in brief: as §1
Test [7] has as its target Fuc(a1-2)[Gal(a1-3)]Gal(b1-4)Glc. Put shortly:
as §1

Test [8] deals with Fuc(a1-2)[Gal(a1-3)]Gal(b1-4)GlcNAc. The method in brief:
as §1

The target in test [9] is Fuc(a1-2)[Gal(a1-3)]Gal(b1-4)GlcNAc(b1-2)Man(a1-3)[Fuc(a1-2)[Gal(a1-3)]Gal(b1-4)GlcNAc(b1-2)Man(a1-6)]Man(b1-4)GlcNAc(b1-4)GlcNAc. The method in brief:
as §1

In test [10] the target is Fuc(a1-2)[Gal(a1-3)]Gal(b1-4)[Fuc(a1-3)]GlcNAc. The method in brief: as §1
In test [11] the target is Fuc(a1-2)[Gal(a1-4)]Gal(b1-4)GlcNAc. Put shortly: as §1
In test [12] the target is Fuc(a1-2)[GalNAc(a1-3)]Gal. The method in brief:
as §1

Test [13] deals with Fuc(a1-2)[GalNAc(a1-3)]Gal(b1-3)GlcNAc. Put shortly:
as §1

Test [14] addresses Fuc(a1-2)[GalNAc(a1-3)]Gal(b1-3)GlcNAc(b1-2)Man(a1-3)[Fuc(a1-2)[GalNAc(a1-3)]Gal(b1-3)GlcNAc(b1-2)Man(a1-6)]Man(b1-4)GlcNAc(b1-4)GlcNAc. The method in brief:
as §1

Test [15] has as its target Fuc(a1-2)[GalNAc(a1-3)]Gal(b1-4)Glc. The method in brief: as §1
The target in test [16] is Fuc(a1-2)[GalNAc(a1-3)]Gal(b1-4)GlcNAc. The method in brief: as §1
Test [17] concerns the target Fuc(a1-2)[GalNAc(a1-3)]Gal(b1-4)GlcNAc(b1-2)Man(a1-3)[GalNAc(a1-3)[Fuc(a1-2)]Gal(b1-4)GlcNAc(b1-2)Man(a1-6)]Man(b1-4)GlcNAc(b1-4)GlcNAc. Put shortly: as §1
Test [18] has as its target Fuc(a1-2)[GalNAc(a1-3)]Gal(b1-4)GlcNAc(b1-3)Gal(b1-4)GlcNAc. Put shortly:
as §1

Test [19] deals with Fuc(a1-2)[GalNAc(a1-3)]Gal(b1-4)GlcNAc(b1-3)Gal(b1-4)GlcNAc(b1-3)Gal(b1-4)GlcNAc. The method in brief: as §1
Test [20] has as its target Fuc(a1-2)[GalNAc(a1-3)]Gal(b1-4)[Fuc(a1-3)]GlcNAc. The method in brief:
as §1

For test [21], the target named is Fuc(a1-2)[GalNAc(a1-4)]Gal(b1-4)GlcNAc. The method in brief: as §1
Test [22] has as its target Fuc(a1-2)[GalNAc(b1-3)]Gal. Put shortly:
as §1

Test [23] deals with Fuc(a1-3)GlcNAc. The method in brief:
as §1

Some of the results follow.

B1: Spy 2007 (Streptococcus pyogenes), Q99XV3 (protein)
chain: MKKGFFLMAMVVSLVMIAGCDKSANPKQPTQGMSVVTSFYPMYAMTKEVSGDLNDVRMIQSGAGIHSFEPSVNDVAAIYDADLFVYHSHTLEAWARDLDPNLKKSKVDVFEASKPLTLDRVKGLEDMEVTQGIDPATLYDPHTWTDPVLAGEEAVNIAKELGRLDPKHKDSYTKNAKAFKKEAEQLTEEYTQKFKKVRSKTFVTQHTAFSYLAKRFGLKQLGISGISPEQEPSPRQLKEIQDFVKEYNVKTIFAEDNVNPKIAHAIAKSTGAKVKTLSPLEAAPSGNKTYLENLRANLEVLYQQLK
As for B1, the “glycan array binding signal (z-score)” value is 2.17 in [1]; 0.976 in [2]; 1.21 in test [3]; -0.201 in test [4]; -0.784 in test [5]; -0.975 in test [6]. Besides, the “glycan array binding signal (z-score)” value was -0.515 in test [7]; -0.722 in test [8]; -1.22 in [9]; 0.664 in [10]; -0.369 in [11]; -0.504 in test [12]. The “glycan array binding signal (z-score)” value in test [13] was 0.059; in test [14] it was -0.914; in test [15], -0.849; in test [16], -0.665; in test [17] it was -0.606; in test [18] it was -0.558. Also, the “glycan array binding signal (z-score)” value in test [19] is 0.246; in test [20] it was 0.119; in test [21] it was 0.034; in test [22] it was -0.148; in [23] it was 0.046.

These data come from the supplement of paper PMC8728848.
